Laboratory results taken from PubChem BioAssay AID528 (NMMLSC, 2006).
Several values for one entry are separate records, joined by “and”; a condition that tells them apart may be missing. Equal values may be shown once. Hit rate of the full screen: of about 24,000 compounds, fewer than 10 were called active. Inconclusive means that the source gave no clear call. Such entries were picked first, then a sample of the others.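 How the source made its calls: active means fluorescent ligand binding to cells raised by more than 40% of the manganese-induced maximum; inconclusive means compound's own fluorescence above 85% of the ligand control signal; inactive means the rest.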

Protein sequences, listed by entry. Tags and fused reporters are not part of them.
UniProt P13612, whole entry, looked up: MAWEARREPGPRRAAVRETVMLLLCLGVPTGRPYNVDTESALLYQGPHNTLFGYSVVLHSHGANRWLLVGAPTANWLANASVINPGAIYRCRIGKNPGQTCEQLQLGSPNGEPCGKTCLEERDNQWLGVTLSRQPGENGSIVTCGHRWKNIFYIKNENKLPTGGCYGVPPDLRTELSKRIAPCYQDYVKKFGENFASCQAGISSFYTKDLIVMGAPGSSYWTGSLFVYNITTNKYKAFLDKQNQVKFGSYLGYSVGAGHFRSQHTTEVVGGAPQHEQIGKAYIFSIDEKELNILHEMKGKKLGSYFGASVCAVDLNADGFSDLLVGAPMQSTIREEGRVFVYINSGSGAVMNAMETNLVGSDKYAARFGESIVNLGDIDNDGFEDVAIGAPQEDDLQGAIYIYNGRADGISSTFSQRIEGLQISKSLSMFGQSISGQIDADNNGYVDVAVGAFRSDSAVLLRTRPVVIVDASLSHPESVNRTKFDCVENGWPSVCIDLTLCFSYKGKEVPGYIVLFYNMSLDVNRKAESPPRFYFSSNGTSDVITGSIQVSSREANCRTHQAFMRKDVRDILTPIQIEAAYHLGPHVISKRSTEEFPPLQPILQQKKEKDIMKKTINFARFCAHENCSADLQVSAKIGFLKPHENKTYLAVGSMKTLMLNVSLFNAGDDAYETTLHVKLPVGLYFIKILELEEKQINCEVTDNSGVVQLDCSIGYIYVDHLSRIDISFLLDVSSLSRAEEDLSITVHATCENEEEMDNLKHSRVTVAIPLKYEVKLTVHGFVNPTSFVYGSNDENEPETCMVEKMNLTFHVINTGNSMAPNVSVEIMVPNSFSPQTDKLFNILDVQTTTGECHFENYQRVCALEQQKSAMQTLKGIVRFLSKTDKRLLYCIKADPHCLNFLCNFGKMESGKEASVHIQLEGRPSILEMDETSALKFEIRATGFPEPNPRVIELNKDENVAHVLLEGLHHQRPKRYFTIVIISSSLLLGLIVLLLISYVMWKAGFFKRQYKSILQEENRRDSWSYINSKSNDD

molecular target: Integrin alpha-4 (Homo sapiens) (UniProt P13612); assay: enhancers of LDV-FITC binding to VLA-4 integrin, primary screen, Jurkat cells, flow cytometry (AID 528); conditions: active compounds read high, screened at 10 µM (by protocol);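 on activation: 0% = ligand binding without compound and 100% = manganese-stimulated maximal binding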

Row | Structure (SMILES) | activation
1 | CCCC(=O)c1cc2ccccc2oc1=O | inactive: 0%
2 | CSC1=NCCN1C(=O)c1cccc(Br)c1 | inconclusive
3 | Cc1ccc(/C=N/c2sc3c(c2C#N)CCC3)s1 | inconclusive
4 | COc1cc2c(C(=O)NCc3ccc4c(c3)OCO4)cn(CC(C)C)c(=O)c2cc1OC | inconclusive
5 | O=C1OC(c2ccc(Br)cc2)=N/C1=C\N1CCCCC1 | inconclusive
6 | O=C(c1ccc(Cl)cc1)N(Cc1cccs1)C1CCS(=O)(=O)C1 (stereo not given) | inactive: -3.5%
7 | Cc1ccc(S(=O)(=O)Cn2nnnc2CN(Cc2ccco2)CC2CCCO2)cc1 (stereo not given) | inactive: 0.5%
8 | O=C(Nc1cccc(C(F)(F)F)c1)C1CCCN1S(=O)(=O)c1cccc2cccnc12 (stereo not given) | inconclusive
9 | CCCSc1nnc2nc3c(nn12)c1ccccc1n3C | inactive: -1%
10 | CSC1=NCCN1C(=O)c1ccc2c(c1)OCO2 | inconclusive
11 | Cn1c(=O)cc(SCC(=O)N2CCCC2)c2ccc(Cl)cc21 | inconclusive
12 | COc1ccc(-c2nc(CS(=O)CC(=O)NCc3ccc(Cl)cc3)c(C)o2)cc1 (stereo not given) | inconclusive
13 | COc1cccc(C2CC(c3ccccc3OC)n3nc(N)nc3N2)c1 (stereo not given) | inactive: 1%
14 | Cn1c(=O)oc2cc(S(=O)(=O)NCCN3CCCCCC3)ccc21 | inconclusive
15 | Cc1ccc(-n2nc(C(=O)NCc3ccco3)c3c4ccccc4n(C)c3c2=O)cc1 | inactive: -12%
16 | CCN(Cc1nc2ccccc2c(=O)[nH]1)Cc1cc(=O)oc2cc(C)c(C)cc12 | inconclusive
17 | CC(=O)N1CCc2cc(S(=O)(=O)NCCCN3CCN(Cc4ccccc4)CC3)ccc21 | inconclusive
18 | CC(C)Cc1cc(C(=O)NCc2cccs2)no1 | inactive: 3%
19 | O=C(Cn1cnc2ccccc2c1=O)NCCC(=O)Nc1ccc2c(c1)OCCO2 | inconclusive
20 | COC(=O)c1cc2c(cc1NC(=O)CSCCc1ccccn1)OCO2 | inconclusive
21 | CC(=O)Nc1nc(C=C(Cl)Cl)cs1 | inconclusive
22 | COC(=O)c1cn(NC(=O)c2ccncc2)c(=O)c2ccccc12 | inactive: 0%
23 | Cc1nn(C)c(C)c1S(=O)(=O)NC1CCCc2ccccc21 (stereo not given) | inconclusive
24 | O=c1cc(N2CCN(Cc3ccccc3)CC2)[nH]c(=O)n1Cc1ccc(F)cc1 | inactive: 5%
25 | Cc1ccc(S(=O)(=O)CC(=O)N2CCCCCC2)cc1 | inconclusive

Row | Structure (SMILES) | activation
26 | OCC1N=C(c2ccccn2)OC1c1ccccc1 (stereo not given) | inconclusive
27 | COc1ccc2[nH]c3c(NCCN(C(C)C)C(C)C)ncnc3c2c1 | inconclusive
28 | CCOC(=O)Cn1c(=O)oc2cc(S(=O)(=O)N3CCn4c3nc3ccccc34)ccc21 | inconclusive
29 | CC(C)Oc1cc(O)c2c(=O)c(-c3ccc(O)cc3)coc2c1 | inconclusive
30 | C/C=C/c1ccc(OCCn2cncn2)c(OC)c1 | inconclusive
31 | Cc1csc(NC(=O)c2sc3nc(-c4cccs4)ccc3c2N)n1 | inconclusive
32 | O=C(Nc1ccc(S(=O)(=O)NC2CCCC2)cc1)c1cnccn1 | inactive: 4%
33 | CCCCOc1cc(C(=O)NCCN(CC)CC)c2ccccc2n1 | inactive: -3.5% and inactive: 4%
34 | COC(=O)C(NS(C)(=O)=O)(c1c(C)[nH]c2ccccc12)C(F)(F)F (stereo not given) | inactive: 2%
35 | CCc1noc(N)c1C(=O)Nc1ccc(F)c(Cl)c1 | inactive: -1%
36 | CCOC(=O)C1CCN(C(=O)C2CCN(S(=O)(=O)N3CCCC3)CC2)CC1 | inactive: 6%
37 | Cc1ccc(CCNC(=O)CN2C(=O)COc3ccccc32)cc1 | inactive: 3%
38 | COc1cc2c(cc1O)C(SC)=NC(C)(C)C2 | inconclusive
39 | COC(=O)c1ccc(CSc2nc(C(F)(F)F)c3c(c2C#N)CCC3)o1 | inconclusive
40 | COC(=O)c1[nH]c2cccc(C)c2c1NC(=O)CN1CCCc2ccccc21 | inconclusive
41 | O=C(CSc1nc2ccccc2c(=O)[nH]1)N1CCCCC1 | inconclusive
42 | Cc1ccc(CNC(=O)Cn2c(=O)oc3ccccc32)o1 | inconclusive
43 | C/C=C(\C)c1nnc(NC(=O)OCC)s1 | inconclusive
44 | FC(F)(F)C(F)(F)C(F)(F)c1nnc2ccc(N3CCOCC3)nn12 | inactive: -4%
45 | COc1ccc(C2C3=C(CCCC3=O)Nc3nc(-c4cc(OC)c(OC)c(OC)c4)nn32)cc1OC (stereo not given) | inconclusive
46 | CCOC(=O)C1CCCN(C(=O)Cn2sc3nc(C)cc(C)c3c2=O)C1 (stereo not given) | inconclusive
47 | CCOc1ccc(C2CC(c3ccccc3C)n3ncnc3N2)cc1 (stereo not given) | inconclusive
48 | Cc1ccc(S(=O)(=O)N(CCO)c2cc3c(s2)CCCC3)cc1 | inconclusive
49 | Fc1cccc(Nc2cc(-n3cccn3)ncn2)c1 | inactive: 4%
50 | CCCn1c(=O)c2ccccc2n2c(SCc3cc(=O)n4ccsc4n3)nnc12 | inconclusive

Taken from above.
Entry of Cc1csc(NC(=O)c2sc3nc(-c4cccs4)ccc3c2N)n1 under activation: inconclusive
Entry of CCOC(=O)Cn1c(=O)oc2cc(S(=O)(=O)N3CCn4c3nc3ccccc34)ccc21 under activation: inconclusive
Entry of O=C(Nc1ccc(S(=O)(=O)NC2CCCC2)cc1)c1cnccn1 under activation: inactive: 4%
Entry of COC(=O)C(NS(C)(=O)=O)(c1c(C)[nH]c2ccccc12)C(F)(F)F (stereo not given) under activation: inactive: 2%
Entry of COc1ccc(C2C3=C(CCCC3=O)Nc3nc(-c4cc(OC)c(OC)c(OC)c4)nn32)cc1OC (stereo not given) under activation: inconclusive

Next part.

Row | Structure (SMILES) | activation
51 | COCCn1nnnc1C(c1cc2cc(OC)ccc2[nH]c1=O)N1CCC(Cc2ccccc2)CC1 (stereo not given) | inconclusive
52 | COCCNC(=O)CN1C(=O)CSc2ncccc21 | inactive: 2.7%
53 | CCOC(=O)N1CCN(C(=O)CS(=O)Cc2nc(-c3ccc(C)cc3)oc2C)CC1 (stereo not given) | inconclusive
54 | COc1cccc(C2C3=C(CCCC3=O)Nc3nc4ccccc4n32)c1OC (stereo not given) | inactive: 3%
55 | Cc1nn(-c2ccccc2)c(C)c1NC(=O)Cc1cccs1 | inconclusive
56 | COc1ccc(NC(=O)CSc2nc3c(c(=O)[nH]2)CCC3)cc1OC | inactive: -6%
57 | COc1nc(N2CCCC2)nc(-n2cc(-c3ccccc3)nn2)n1 | inactive: -7%
58 | COc1ccc(-c2noc(-c3cc(C)cc(C)c3)n2)cc1OC | inconclusive
59 | Cc1c(C(=O)NCc2ccc3c(c2)OCO3)oc2ccc(S(=O)(=O)N3CCC(C)CC3)cc12 | inactive: 0%
60 | CC1=C(C(=O)Nc2cccnc2)C(c2ccccn2)n2nnnc2N1 (stereo not given) | inconclusive
61 | Cc1ccc2cc3cc(C(=O)NCCC(C)C)oc3nc2c1 | inconclusive
62 | CC(C)NC(=O)CSc1nnc(-c2ccc(C(C)(C)C)cc2)n1C | inactive: -1%
63 | Cc1ccc(C)c(S(=O)(=O)n2cnc3ccccc32)c1 | inconclusive
64 | COC(=O)C1C(=O)c2c([nH]c(C(=O)OC3CCCC3C)c2C)CC1C (stereo not given) | inconclusive
65 | CCOc1ccc(NC(=O)CCN2CCN(S(=O)(=O)c3cc(Cl)ccc3OC)CC2)cc1 | inconclusive
66 | CC1(C)Cc2ccccc2C2CC(O)C(=O)N21 (stereo not given) | inactive: 17%
67 | Cc1ccc(NC(=O)c2cc(-c3ccc(C)o3)nc3ccccc23)nc1 | inconclusive
68 | C=CCOc1ccc(C2c3c(oc4ccccc4c3=O)C(=O)N2c2ccccn2)cc1OCC (stereo not given) | inactive: -3%
69 | CC1(C)Cc2c(sc3c2C2=NCCN2C=N3)CS1 | inactive: 4.5%
70 | CCN1CCN(c2ccc(-n3c(C)nc4c(cnn4-c4ccccc4Cl)c3=O)cc2)CC1 | inconclusive
71 | O=C1CC2CS(=O)(=O)CC2N1C1CCCCC1 (stereo not given) | inconclusive
72 | Cc1ccc(C)c(S(=O)(=O)N2CCC(c3nc4c(nnn4Cc4ccc(F)cc4)c(=O)[nH]3)CC2)c1 | inconclusive
73 | CCN(CC)c1ccc(/C=N/n2nnnc2N)c(O)c1 | inconclusive
74 | COCCCN(C(=O)Cn1ncc2c(=O)oc3ccc(C)cc3c21)C(C)c1ccncc1 (stereo not given) | inconclusive
75 | CC(=O)c1c(N)n(C)c(=O)n(C)c1=O | inactive: 9%

Row | Structure (SMILES) | activation
76 | COCc1cc(C)c(C#N)c(=S)[nH]1 | inconclusive
77 | O=C(CN1CCN(C(=O)c2c(F)cccc2F)CC1)Nc1ccccc1F | inconclusive
78 | CCN1CCN(C(=O)C2c3cc(OC)c(OC)cc3C(=O)N(C)C2c2ccc(SC)cc2)CC1 (stereo not given) | inactive: 1%
79 | N#Cc1c(N)n(CCOC(=O)c2cccc(Br)c2)c2nc3ccccc3nc12 | inconclusive
80 | CCN1CCCC1CNC(=O)c1cc2c(-c3cccc(OC)c3)nn(C)c2s1 (stereo not given) | inactive: -3%
81 | O=C(Nc1ccccc1-c1nc2ccccc2o1)c1ccc2c(c1)OCCO2 | inconclusive
82 | CC(C)OC(=O)c1cc(=O)[nH]c2ccccc12 | inactive: 1.5%
83 | COc1ccccc1Nc1nc(C)cs1 | inconclusive
84 | CCOC(=O)C1CCCn2c1nc1sc3c(c1c2=O)CCCC3 (stereo not given) | inactive: 3%
85 | COc1ccc(-n2nnc3c(SCC(=O)OCc4ccccc4)ncnc32)cc1 | inconclusive
86 | Cc1cc(Nc2ccc(F)cc2F)n2ncnc2n1 | inconclusive
87 | CC1CC(C)CN(S(=O)(=O)c2ccc(NC(=O)C3COc4ccccc4O3)cc2)C1 (stereo not given) | inconclusive
88 | COc1ccc2c(c1)C(C)=CC(C)(C)N2C(=O)CSc1nnc(-c2ccc(C)cc2)o1 | inactive: 8.5%
89 | COc1ccc(-n2c(Cn3c(=O)sc4ccccc43)nnc2SCC(=O)N2CCOCC2)cc1 | inactive: 0%
90 | COc1cc(C2CC(=O)N3CN(Cc4ccco4)CSC3=C2C#N)ccc1OCc1ccccc1 (stereo not given) | inconclusive
91 | CCCOc1ccc2oc(=O)c3c(c2c1)CCCN3C(=O)CN1CCN(C(=O)c2ccco2)CC1 | inconclusive
92 | O=C1Nc2ccccc2SC(c2ccccc2)C1O (stereo not given) | inconclusive
93 | CCOCCCNC(=O)C(c1ccccc1)N(Cc1ccc2c(c1)OCO2)C(=O)CNC(C)=O (stereo not given) | inactive: 1.5%
94 | COc1cccc(-c2nn(C)c3sc(C(=O)Nc4ccc5c(c4)OCCO5)cc23)c1 | inconclusive
95 | COC(=O)C1=C(C(=O)c2ccc(C)cc2)C(c2ccc(OC)c(OC)c2)n2nnnc2N1 (stereo not given) | inconclusive
96 | Cn1nnnc1SCc1cc(=O)[nH]c2ccccc12 | inactive: -4%
97 | Cn1c(Cn2c(=O)sc3ccccc32)nnc1SCC(=O)NC1CCCCC1 | inconclusive
98 | Cc1oc(-c2cccs2)nc1CS(=O)CC(=O)NC1CCCCCC1 (stereo not given) | inconclusive
99 | COc1ccc2cc3cc(C(=O)N4CCN(Cc5ccc6c(c5)OCO6)CC4)oc3nc2c1 | inconclusive
100 | O=C(c1ccccc1)c1ccc2nc(N3CCN(C(=O)c4ccco4)CC3)c3nncn3c2c1 | inconclusive
